In the supplement of paper PMC6445147:
Values scatter widely in this assay.

B1: human tRNA-Pro; a variant is named by its letters at N, in order (parent)
chain: GGCTCGTTGGTCTAGNGGTATGATTCTCGCTTAGGGTGCGAGAGGTCCCGGGTTCNNATCCCGGACGAGCCC

Variants of: B1
Experiment: tRNA 3' processing efficiency (processed reads / all reads, maximum-likelihood estimate) (fraction); higher = more efficient 3' processing
Conditions: HEK293T; construct: no Pol-II promoter ((-)CMV library)

Variant	tRNA 3' processing efficiency
GGCTCGTTAGTCTCGGGGGATGATTCTCGCTTAGGGTGCGAGAGGTCCCGGGTTCAAACCCCGGACGAGCCC	0.14
GGCTCGTTGGTCTAGCGGTATGATTCTCGCTTGGGGTGCGAGAGGTCCCGGGTTCAAGACCCGGACGAGCCC	0.79
GGCTCGTTGGTCTAGGGGTATGATTCTCGCTTGGGGTACGAGAGGTCCCGGGTTCAAGTCCCGGACGAGCCC	0.2
GGCTCGTTGGTCTAGGGGTATGATTCTCGCTTGGGGTGTGAGAGGTCCCGGGTTCAATTCCCGGACGAGCCC	0.25
GGCTCGTTGGTCTAGGGGTATGATTCTCGCTTGGGGTGCGAGAGGTCCCGGGTTCAATCCCCGGACGAGCCC	0.6
GGCTCGTTAGTCTAGTGGTATGATTCTCGCTTGGGGTGCGAGAGGTCCCGGGTTCAATTCCCGGACGAGCCC	0.2
GGCTCGTTAGTCTAGGGGTCTGATTCTCGCTTAGGGTGCGAGAGGTCCCGGGCTCAAACCCCGGACGAGCCC	0.25
GGCTCGTTGGTCTAGTGGTATGATTCTCGCTTAGGGTGCGAGAGGTCCCGGGTTAAATACCCGGACGAGCCC	0.6
GGCTCGTTGGTCTAGAGGTATGATTCTCGCTTGGGGTGCGAGAGGTCCCGGGTTCAATTCCCGGACGAGCCC	0.2
GGCTCGTTAGTCTCGGGGTATGATTCTCGCTTAGGGTGCGAGAGGTCCCGGGTACAAATCCCGGACGAGCCC	0.33
GGCTCGTTGGTCTAGCGGTATGATTCTCGCTTGGGGTGCGAGAGGTCCCGGGTTCAAATCCCGGACGAGCCC	0.62
TTTTCGTCGGTCTAGGCGTATGATTCTCGCTTAGGGTGCGAGAGGTCCCGGGTTCAACTCCCGGACGAGCCC	0.25
GGCTCGTTGGTCTAGAGGTTTGATTCTCGCTTAGGGTGCGAGAGGTCCCGGGGTCAACTCCCGGACGAGCCC	0.56
GGCTCGTTAGTCTTGGGGTTTGATTCTCGCTTAGGGTGCGAGAGGTCCCGGGGTCAAGTCCCGGACGAGCCC	0.4
GACTCGTTGGTCTAGGGGTATGATTCTCGCTTAGGGTGCGAGAGGTCCCGGGATCAAATCCCGGACGAGCCC	0.25
GGCTCGTTGGTCTAGTGGTATGATTCTCGCTTGGGGTGCGAGAGGTCCCGGGTTCAAATCCCGGACGAGCCC	0.96
GGCTCGTTAGTCTAGGGGTTTGATTCTCGCTTGGGGTGCGAGAGGTCCCGGGTTCAAATCCCGGACGAGCCC	0.83
GGTGCTTAGGTCTAGGGGTATGATTCTCGCTTAGGGTGCGAGAGGTCCCGGGTTCAAATCCCGGACGAGCCC	0.67
GGCTCGTTAGTCTTGGGGTATGATTCTCGCTTAGGGTGCGAGAGGTCCCGGGATCAAACCCCGGACGAGCCC	0.22

Part of the list above, with each value named.
GGCTCGTTGGTCTAGGGGTATGATTCTCGCTTGGGGTGTGAGAGGTCCCGGGTTCAATTCCCGGACGAGCCC
  tRNA 3' processing efficiency: 0.25
GGCTCGTTGGTCTAGGGGTATGATTCTCGCTTGGGGTGCGAGAGGTCCCGGGTTCAATCCCCGGACGAGCCC
  tRNA 3' processing efficiency: 0.6

Further entries follow.

Variant	tRNA 3' processing efficiency
GGCTCGTTAGTCTAGGGGTTTGATTCTCGCTTAGGGTGCGAGAGGTCCCGGGTTCAAGCCCCGGACGAGCCC	0.25
GGCTCGTTGGTCTAGGGGTATGATTCTCGCTTGGGGTGCGAGAGGTCCCGGGTTCAAACCCCGGACGAGCCC	0.44
GGCTCGTTGGTCTAGGGGTATGATTCTCGCTTAGGGTGCGAGAGGTCTCGGGTTCAAACCCCGGACGAGCCC	0.56
GGCTCATTGGTCTAGAGGTGTGATTCTCGCTTAGGGTGCGAGAGGTCCCGGGTTCAATCCCCGGACGAGCCC	0.5
GGCTCGTTGGTCTAGCGGTTTGATTCTCGCTTAGGGTGCGAGAGGTCCCGGGATCAAAGCCCGGACGAGCCC	0.2
GGCTCGTTAGTCTCGGGGTATGATTCTCGCTTAGGGTGCGAGAGGTCCCGGGTTCAAACCCCGGACGAGCCC	0.31
GGCTCGTTGGTCTAGTGGTGTGATTCTCGCTTAGGGTGCGAGAGGTCCCGAGTTCAAAGCCCGGACGAGCCC	0.55
GGCTCGTTAGTCTTGGGGTATGATTCTCGCTTGGGGTGCGAGAGGTCCCGGGTTCAAATCCCGGACGAGCCC	0.2
GGCTCGTTAGTCTCGGGGAATGATTCTCGCTTAGGGTGCGAGAGGTCCCGGGTTCAACTCCCGGACGAGCCC	0.4
GGCTCGTTGGTCTAGCGGTGTGATTCTCGCTTAGGGTGCGAGAGGTCCCGGGTTCAATACCCGGACGAGCCC	0.4
GGCTCGTTAGTCTTGGGGTATGATTCTCGCTTAGGGTGCGAGAGGTCCCGGGTTCAACCCCCGGACGAGCCC	0.43
GGCTCGTTGGTCTAGGGGTATGATTCTCGCTTAGGGTGCGAGAGGTCCCGGGTTCAAGTCCCGAACGAGCCC	0.4
GGCTCGTTAGTCTCCGGGTATGATTCTCGCTTAGGGTGCGAGAGGTCCCGGGTTCAAAGCCCGGACGAGCCC	0.25
GGCTCGTTGGTCTAGGGGTATGATTCTCGCTTGGGCTGCGAGAGGTCCCGGGTTCAAGTCCCGGACGAGCCC	0.62
GGCTCGTTGGTCTAGGGGTATGATTCTCGCTTGGGCTGCGAGAGGTCCCGGGTTCAATTCCCGGACGAGCCC	0.29
TGCTCGTTAGTCTACGGGTATGATTCTCGCTTAGGGTGCGAGAGGTCCCGGGTTCAAATCCCGGACGAGCCC	0.43
GGCTCGTTGGTCTAGGGGTATGATTCTCGCTTGGGGTGCGAGAGGTCCCGGGTTCAATTCCCGGACGAGCCC	0.42
GGCTCGTTGGTCTAGGGGTATGATTCTCGCTTGGGGTGCGAGAGGTCCCGGGTTCAACTCCCGGACGAGCCC	0.2
